From patent publication US20260240820A1, “METHOD FOR CONTROLLING MEMBRANE POTENTIAL-DEPENDENT ION CHANNEL THROUGH TYPE I TASTE RECEPTORS (T1RS)” (ION CHAT RESEARCH CORPORATE, priority 2022, published 2026)

How the values were obtained:
Nav1.5 = test: Patch-clamp (voltage clamp) recording of VGSC current in HEK cells stably expressing Nav1.5
[1] = tested on: VGSC of SH-SY5Y cells (Nav1.7, Nav1.2, Nav1.3); test: Patch-clamp recording of VGSC current in differentiated SH-SY5Y cells; type: cell-based, human
Text: Furthermore, the inventors focused on the relationship between taste receptors, particularly the sweet or umami receptors containing the T1R3 subunit, which are widely expressed in the brain and nervous system, including the hippocampus and cortex. They used human neuroblastoma cells (SH-SY5Y) that functionally express Nav1.2, Nav1.3, and Nav1.7 (as reported in non-patent literature 8), as well as HEK cells stably expressing Nav1.5 (with endogenous expression of T1R1, T1R2, and T1R3). They observed the effects of taste stimuli on sodium channel activation. By reducing the expression of T1R1 and T1R3 genes using silencing vectors, they confirmed that the effects on sodium channel currents induced by taste stimuli act through taste receptor GPCRs.
The SH-SY5Y cell culture medium was prepared by mixing DMEM (Sigma-Aldrich) and F-12 (Sigma-Aldrich) in equal proportions. To induce neuronal-like differentiation, the medium contained 1% FBS (BioWest), 5% 40 mM L-Glutamine (Fuji Film), and 1% MEM non-essential amino acids (Wako Pure Chemical Industries). During differentiation, SH-SY5Y cells were cultured for at least 5 days with the addition of 10 μM/ml retinoic acid (Fuji Film). In this document, “SH-SY5Y cells” refer to the SH-SY5Y cell line differentiated into neuronal-like cells.

Compound | Hill Slope (Nav1.5; prepulse −70 mV) | Hill Slope (Nav1.5; prepulse −100 mV) | Hill Slope ([1]; prepulse −60 mV) | Hill Slope ([1]; prepulse −80 mV) | Hill Slope (Nav1.5; prepulse −80 mV) | Hill Slope (Nav1.5; prepulse −120 mV)
Aspartame | 1.9 | 4.2 |  |  |  | 
CC(Oc1ccc(Cl)cc1Cl)C(=O)O (stereo not shown) [dichlorprop, 2-(2,4-dichlorophenoxy) propanoic acid] |  | 1.9 | 2.5 | 2.27 | 1.6 | 1.7
